# Assay results published in patent US4959352 (dated 1990).
# Experiment: general procedure: Boc solid-phase peptide synthesis; benzhydrylamine (BHA) resin; DCC (HOBt preactivation for Boc-Asn-OH); BOP for on-resin cyclization
# Settings: whole synthesis, scale 0.255 mmol
substance,measurement,value
"Cyclo^8,12 desNH2 Tyr^1,Ala^15 ]-GRF(1-29)-NH2",crude mass,450 mg
